Measurements from “University of Dundee, Small-Polar-MMV Screening Library” (2021), ChEMBL document CHEMBL3988442.

Protein sequences, listed by entry. Tags and fused reporters are not part of them.
UniProt P9WFT3, whole entry: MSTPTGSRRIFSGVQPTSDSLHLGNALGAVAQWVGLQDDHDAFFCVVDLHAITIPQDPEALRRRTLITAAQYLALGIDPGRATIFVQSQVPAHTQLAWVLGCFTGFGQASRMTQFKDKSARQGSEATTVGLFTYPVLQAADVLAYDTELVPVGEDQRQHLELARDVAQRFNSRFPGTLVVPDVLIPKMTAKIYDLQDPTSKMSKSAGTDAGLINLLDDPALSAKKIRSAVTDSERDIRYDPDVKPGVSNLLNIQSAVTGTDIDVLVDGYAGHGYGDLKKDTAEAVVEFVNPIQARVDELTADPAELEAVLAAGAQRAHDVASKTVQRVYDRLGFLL

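Enzyme assay of tryptophanyl-tRNA synthetase; the read-out is not stated. Target: Tryptophan-tRNA ligase, Mycobacterium tuberculosis (UniProt P9WFT3). Tested at 10 µM. Higher most likely means stronger inhibition; the record gives no direction and few retests gave an IC50. Size under these conditions: about 65,000 compounds, about 64 of them at 50% or above in at least one test.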

The filed quantity is “Percent Effect” (%).
The controls that fix the scale are not given in the record; negative values are as filed.
This is an unselected part of the compounds tested.

structure,Percent Effect
COc1cc(/C=C/c2ncc(C(=O)O)s2)cc(Cl)c1O,-7.895%
CN(C)c1nccnc1C1CCN(c2cnccn2)CC1,0.1302%
Cc1ccc(NC(=O)C2CSCN2C(=O)c2cnccn2)c(C)c1 (centres undefined),1.411%
CN(Cc1ccccc1F)Cc1cc2c(cc1Br)OCCO2,1.519%
COc1ccccc1OC1CCN(Cc2cccnc2)CC1,3.214%
Cc1cc(C(=O)N2CCN(C(=O)CC(C)C)[C@@H]3CS(=O)(=O)C[C@@H]32)no1,1.188%
CC(C)N1CCCC(C(=O)NC(C)(C)c2nnc(N)s2)C1 (centres undefined),-3.48%
CN1[C@@H](c2ccccc2)[C@@H](C(=O)NCc2ccccn2)C[C@@]1(C)C(=O)O,0.9518%
O=C1CC[C@H]2[C@H](CCN2C(=O)C2CCOCC2)N1Cc1ccncc1,6.633%
CN1CCO[C@@H]2CN(C(=O)c3ccc4ncccc4c3)CC[C@@H]2C1,-4.824%
CNC(=O)Cc1ccccc1NC(=O)C1CCCC1,8.566%
O=C(O)c1ccccc1CN1CCC(c2ccnc3ccnn23)CC1,-4.706%
COC(=O)NCc1ccc(NC(=O)CC2=CCCCC2)cc1,-7.209%
CN1CCC2(CC1)CN(C(=O)c1onc3ccccc13)CCCN2C,-7.342%
Cc1ccc(CN2CCOCC2c2[nH]ncc2C)cn1 (centres undefined),-7.388%
COc1cc(CNC(C)Cn2cccn2)cc(OC)c1OC (centres undefined),-0.3997%
COc1cc2c(nn1)CCN(Cc1noc(CC(C)C)n1)C2,0.7607%
Cc1ccc(N2CCC3(CCN(C(=O)c4ccoc4)CC3)CC2)nn1,-0.9213%
CO[C@H]1CN(Cc2c(C)ccc3ncccc23)CC[C@H]1N,-4.2%
Cc1csc2c(N3CCC(NCCc4ccnn4C)CC3)ncnc12,-0.3623%
COc1ccccc1CC1CCCN(CC(N)=O)C1 (centres undefined),1.798%
Cc1ccc2cccc(Oc3nc(C)c(C(=O)O)s3)c2n1,-1.708%
CCC(C#N)NC(=O)c1sccc1OC (centres undefined),1.514%
OC1(CN2CCCC2)CCCN(Cc2ccc(F)cc2Cl)C1 (centres undefined),-2.309%
c1cnc(N2CCOCC3(C2)CN(c2nccs2)CCO3)nc1 (centres undefined),-0.5724%
O=C(NCN1CCc2ccccc2C1)c1cnccn1,-1.676%
CS(=O)(=O)CCN1CCC(=Cc2ccccc2)CC1,4.321%
Cc1ccc(-c2cn3c(n2)CO[C@@H](CNCc2cccnc2)C3)cc1,10.85%
Cc1ccc(CN2CC[C@@H]3[C@@H](CO[C@H]3CN(C)C)C2)o1,0.7359%
O=C(NC1CCCCC1)N1CCC(n2cc(-c3ccccn3)nn2)CC1,1.232%
CCCN1C[C@H]2CC[C@@H]1CN(Cc1cccc(-n3cccn3)c1)C2,3.715%
CCCc1n[nH]c(C2CN(CCCOc3ccccc3)CCO2)n1 (centres undefined),-2.242%
CC(C)c1ncc2c(n1)CN(Cc1noc(-c3ccccc3)n1)CC2,25.44%
c1ccc(NCCn2cc(C3CCCNC3)nn2)cc1 (centres undefined),3.457%
CC(C)Cc1cc(C(=O)N2CCC(N3CCCC3)CC2)cc(O)n1,3.695%
CCC(C)C(=O)N(CC(=O)OC)c1cccc(C)n1 (centres undefined),-4.235%
N#Cc1csc(CNCCOc2ccc(Cl)cn2)c1,-2.347%
Cc1cc(Cl)ccc1C(=O)N[C@H]1CN(S(C)(=O)=O)C[C@@H]1C1CC1,-3.382%
Cc1nc(C)n(CC2CCCCN2CC(=O)Nc2cccnc2)n1 (centres undefined),-0.3791%
Cc1noc(-c2cnc(NCC3CCCO3)nc2-c2ccco2)c1C (centres undefined),-1.693%
Cc1cccnc1CN1CCN(C(=O)c2cnn(C(C)C)c2)CC1,0%
COc1ccccc1OC1CCN(c2ccncc2)CC1,1.223%
CCc1nccn1CCC(=O)N1CCCC1c1ccc(F)cc1 (centres undefined),-6.197%
CC(CNC(=O)NCc1ccc2c(c1)OCO2)CC1(C)OCCO1 (centres undefined),-3.935%
COCCCn1ccc(NC2CCOCC2)n1,-3.431%
CCc1c(C(=O)O)nnn1-c1cc(C)ccc1C,-0.3215%
Cc1nc(CN2CCC3(CCCN(Cc4cccnc4)C3)C2=O)cs1 (centres undefined),11.44%
CCC1c2ccccc2CCN1C(=O)c1ccc(OC)nn1 (centres undefined),-7.78%
CN(C)c1cc(CNC(=O)NCC2(C)CCCS2)ccn1 (centres undefined),-2.673%
Cc1nc(N)cc(C2CCN2CCOc2ccccc2)n1 (centres undefined),-1.198%
O=C1NCCO[C@H]2CN(C(=O)CCc3ccc(Cl)cc3)CC[C@@H]12,0.549%
O=C(CCCN1CCOC1=O)Nc1cnn(-c2ccccc2Cl)c1,-2.893%
CN(C)C(=O)CCCn1ccc(NC(=O)NCc2cccc(F)c2)n1,-1.342%
COc1ccccc1OCC(=O)NS(=O)(=O)c1ccc(Cl)s1,-0.1704%
CCCS(=O)(=O)NCc1cccnc1Oc1ccc(C)nc1,-0.404%
COCCN1C[C@H](NC(=O)CCC(F)(F)F)[C@@H](C(C)C)C1,0.3221%
CN(C)c1cnn(CC(=O)N2Cc3ccccc3C2)c(=O)c1,1.876%
COCCN1CCC(CNC(=O)C2(c3ccccc3)CCOCC2)C1 (centres undefined),2.128%
CCc1noc(CN(C)C2CCN(c3sccc3C#N)C2=O)n1 (centres undefined),-0.289%
CCN(Cc1cccc(NC(=O)COCCOC)c1)C(C)=O,-6.364%
Cc1n[nH]c(C)c1CN(C)C(C(=O)O)c1ccc2c(c1)OCO2 (centres undefined),3.759%
Cc1ccccc1C(C)NC(=O)CN1CCN(Cc2cccs2)CC1 (centres undefined),0.5045%
CC(=O)N1CCc2c(nc(N(C)C)nc2NCCCn2ccnc2)C1,5.203%
O=S(=O)(c1cccc(F)c1)N1CC[C@H]2[C@H]1CCN2c1ncccn1,-3.391%
O=C1C(CS(=O)(=O)Nc2ccc(Cl)cc2)=NC(=O)n2cccc21,-2.311%
Cc1nnc(NC(=O)N2CCCN(C3CCCC3)CC2)s1,1.591%
CC(NCCCc1cnn(C)c1)c1ccc(Cl)s1 (centres undefined),-7.627%
Cc1nc2ccccn2c1CN1C[C@@H](CN2CCOCC2)[C@@H](CO)C1,-4.04%
COCCN(C)C[C@@H]1CN(C(=O)c2cccc(C(F)(F)F)c2)C[C@@H]1CO,-0.5418%
COCCNCc1cc2cc(C)cc(C)c2[nH]c1=O,-5.065%
Cc1ccnc(NC(=O)C2CCCO2)c1 (centres undefined),2.632%
COc1ccc2nc(CNC(=O)c3cc(C(C)C)on3)[nH]c2c1,2.602%
CC(NC(=O)COC1CCCC1)c1nc(-c2ccccc2)c[nH]1 (centres undefined),-2.825%
COc1ccccc1-c1nc(C(=O)N2CCOCC2)n2ccncc12,3.371%
COc1ccccc1CNC(=O)N1CCCC(c2nncn2C)C1 (centres undefined),-1.267%
Nc1ncnc2nc(C3CCCCN3)ccc12 (centres undefined),-1.501%
CCOc1ccc(CNC(C)c2cccc(S(=O)(=O)NC)c2)cc1 (centres undefined),-1.906%
CCS(=O)(=O)CC(=O)NC(c1ccc(F)cc1)C1CCCC1 (centres undefined),-7.097%
Cn1cc(CN2C[C@H]3CCN(C(=O)c4cscn4)C[C@H]3C2)cn1,-3.754%
NC(=O)c1cccc(CNC(=O)NCCOc2ccc(F)c(F)c2)c1,-1.499%
CN(Cc1ccc2c(c1)OCO2)C(=O)Cn1cccnc1=O,9.237%
Cc1cnc(CNC(=O)NC2CCCN(c3ccccc3F)C2)s1 (centres undefined),0.7009%
Cc1cccn2c(CNC(C)CCn3cccn3)cnc12 (centres undefined),-8.448%
O=C(NCc1ccco1)c1cc[n+]([O-])cc1,-23.08%
CN(C)C(CNC(=O)c1nc(N2CCCC2)ncc1Cl)c1ccco1 (centres undefined),-0.2064%
O=C1CSc2ccc(C(=O)N3CCCC(n4ccnc4)C3)cc2N1 (centres undefined),-4.115%
Cc1cc(C)cc(C(=O)N2CCCC3(CCCC(=O)N3C)C2)c1 (centres undefined),0.1658%
COc1nsc2nc(C3CCCN3C(C)=O)ccc12 (centres undefined),-1.501%
Cc1cccc(S(=O)(=O)N2CSCC2C(=O)NC(C)(C)C)c1 (centres undefined),-2.457%
Cc1nc(N2CCCC2)nc(C)c1NC(=O)c1ccco1,-0.3799%
Cc1n[nH]c(=O)c2c(NC(=O)CN3CCOCC3)oc(C)c12,1.319%
O=C(Nc1c(F)cccc1Oc1ccccc1)C1CCS(=O)(=O)C1 (centres undefined),-1.72%
CCC(=O)N1CCC(NC(=O)c2cccc(-n3ccnc3)c2)C1 (centres undefined),-4.748%
N#Cc1cccnc1NCCC1CCN(CC(F)(F)F)CC1,-0.9166%

The last 6 entries again:

| structure | Percent Effect |
|---|---|
| `Cc1cccc(S(=O)(=O)N2CSCC2C(=O)NC(C)(C)C)c1` (centres undefined) | -2.457% |
| `Cc1nc(N2CCCC2)nc(C)c1NC(=O)c1ccco1` | -0.3799% |
| `Cc1n[nH]c(=O)c2c(NC(=O)CN3CCOCC3)oc(C)c12` | 1.319% |
| `O=C(Nc1c(F)cccc1Oc1ccccc1)C1CCS(=O)(=O)C1` (centres undefined) | -1.72% |
| `CCC(=O)N1CCC(NC(=O)c2cccc(-n3ccnc3)c2)C1` (centres undefined) | -4.748% |
| `N#Cc1cccnc1NCCC1CCN(CC(F)(F)F)CC1` | -0.9166% |